Growth rating (0-3) data for 2 molecules are collected here from PubChem BioAssay AID504456 (NMMLSC, 2011).

The list shows a part of the results. These are further read-outs of the screen, such as a control signal, another cell line or another target. No call is given for them.

A short description of this test: wild-type yeast growth inhibition sparing TORC1 bypass cells, mechanism study for yeast TOR pathway GFP screen, BY4741 wild type, TORC1 bypass strain (AID 504456). The following applies: S. cerevisiae BY4741 spot growth rating, 48-72 h, at 30 µM.

For `C[C@@H]1C[C@@H]([C@H](O)CC2CC(=O)NC(=O)C2)C(=O)[C@@H](C)C1`, the growth rating (0-3) is 0.

As to `C[C@H]1C[C@@H](C)C(=O)[C@@H]([C@H](O)CC2CC(=O)NC(=O)C2)C1`, the growth rating (0-3) was 0.
